The supplement of paper PMC10849652
Some of the results follow.

By UniProt entry, the sequences of proteins in these tests, tags left out. Where a name states a change or a piece, a line headed by the entry shows the natural chain unless it says otherwise.
UniProt Q76L83: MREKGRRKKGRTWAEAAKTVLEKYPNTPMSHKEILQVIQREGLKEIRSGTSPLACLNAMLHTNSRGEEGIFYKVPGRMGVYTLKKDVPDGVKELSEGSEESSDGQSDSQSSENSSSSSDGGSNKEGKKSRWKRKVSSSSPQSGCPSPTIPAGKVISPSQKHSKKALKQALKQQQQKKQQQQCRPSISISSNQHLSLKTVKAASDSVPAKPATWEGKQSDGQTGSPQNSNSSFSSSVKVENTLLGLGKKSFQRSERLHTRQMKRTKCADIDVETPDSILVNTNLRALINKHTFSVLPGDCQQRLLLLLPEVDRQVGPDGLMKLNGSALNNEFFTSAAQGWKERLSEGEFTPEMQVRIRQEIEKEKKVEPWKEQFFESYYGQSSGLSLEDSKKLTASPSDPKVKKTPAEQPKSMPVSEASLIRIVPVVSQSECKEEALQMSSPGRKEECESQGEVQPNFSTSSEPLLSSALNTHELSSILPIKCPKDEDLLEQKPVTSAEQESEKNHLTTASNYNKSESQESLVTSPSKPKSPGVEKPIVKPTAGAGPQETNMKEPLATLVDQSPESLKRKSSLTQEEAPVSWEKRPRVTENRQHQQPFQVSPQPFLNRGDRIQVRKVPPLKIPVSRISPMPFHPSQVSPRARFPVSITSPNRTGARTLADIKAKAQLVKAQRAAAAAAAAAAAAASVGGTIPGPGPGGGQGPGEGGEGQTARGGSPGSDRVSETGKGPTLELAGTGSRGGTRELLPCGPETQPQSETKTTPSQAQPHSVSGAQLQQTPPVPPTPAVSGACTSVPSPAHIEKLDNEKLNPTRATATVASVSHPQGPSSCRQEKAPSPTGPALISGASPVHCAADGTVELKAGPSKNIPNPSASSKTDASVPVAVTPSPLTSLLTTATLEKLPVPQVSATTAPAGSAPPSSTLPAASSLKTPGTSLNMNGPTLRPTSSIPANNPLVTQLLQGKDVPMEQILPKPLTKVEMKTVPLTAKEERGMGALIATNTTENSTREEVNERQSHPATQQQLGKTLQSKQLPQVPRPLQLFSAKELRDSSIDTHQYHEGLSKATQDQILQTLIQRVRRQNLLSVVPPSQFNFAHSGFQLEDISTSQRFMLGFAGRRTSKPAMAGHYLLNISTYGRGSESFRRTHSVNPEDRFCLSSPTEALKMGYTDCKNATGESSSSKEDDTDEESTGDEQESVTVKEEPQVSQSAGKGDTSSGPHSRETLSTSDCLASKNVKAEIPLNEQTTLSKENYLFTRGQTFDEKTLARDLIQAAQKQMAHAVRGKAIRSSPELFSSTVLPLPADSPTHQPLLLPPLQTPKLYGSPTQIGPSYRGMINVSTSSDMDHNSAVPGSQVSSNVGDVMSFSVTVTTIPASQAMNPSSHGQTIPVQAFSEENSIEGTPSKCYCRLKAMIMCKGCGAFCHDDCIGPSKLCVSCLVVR
UniProt Q13825: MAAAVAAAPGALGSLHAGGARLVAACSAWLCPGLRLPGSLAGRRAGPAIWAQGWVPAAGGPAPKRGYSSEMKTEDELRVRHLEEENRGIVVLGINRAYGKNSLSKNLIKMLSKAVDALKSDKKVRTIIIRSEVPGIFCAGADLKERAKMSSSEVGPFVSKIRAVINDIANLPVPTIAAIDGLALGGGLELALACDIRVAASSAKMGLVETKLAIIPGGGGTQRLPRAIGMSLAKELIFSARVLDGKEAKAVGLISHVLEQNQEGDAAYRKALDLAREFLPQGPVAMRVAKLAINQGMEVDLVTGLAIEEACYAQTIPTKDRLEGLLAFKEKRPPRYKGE
UniProt P00966: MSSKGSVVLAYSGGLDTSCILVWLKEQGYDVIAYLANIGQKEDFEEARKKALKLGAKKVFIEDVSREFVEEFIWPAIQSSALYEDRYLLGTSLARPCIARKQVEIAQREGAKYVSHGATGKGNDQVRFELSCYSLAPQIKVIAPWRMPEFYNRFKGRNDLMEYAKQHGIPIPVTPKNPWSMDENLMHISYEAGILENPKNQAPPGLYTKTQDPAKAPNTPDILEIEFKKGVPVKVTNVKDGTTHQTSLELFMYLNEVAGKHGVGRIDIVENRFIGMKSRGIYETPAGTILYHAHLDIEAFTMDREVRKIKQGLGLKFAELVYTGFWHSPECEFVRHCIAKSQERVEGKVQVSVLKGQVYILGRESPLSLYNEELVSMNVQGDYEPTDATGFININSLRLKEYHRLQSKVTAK
UniProt Q8WWM7: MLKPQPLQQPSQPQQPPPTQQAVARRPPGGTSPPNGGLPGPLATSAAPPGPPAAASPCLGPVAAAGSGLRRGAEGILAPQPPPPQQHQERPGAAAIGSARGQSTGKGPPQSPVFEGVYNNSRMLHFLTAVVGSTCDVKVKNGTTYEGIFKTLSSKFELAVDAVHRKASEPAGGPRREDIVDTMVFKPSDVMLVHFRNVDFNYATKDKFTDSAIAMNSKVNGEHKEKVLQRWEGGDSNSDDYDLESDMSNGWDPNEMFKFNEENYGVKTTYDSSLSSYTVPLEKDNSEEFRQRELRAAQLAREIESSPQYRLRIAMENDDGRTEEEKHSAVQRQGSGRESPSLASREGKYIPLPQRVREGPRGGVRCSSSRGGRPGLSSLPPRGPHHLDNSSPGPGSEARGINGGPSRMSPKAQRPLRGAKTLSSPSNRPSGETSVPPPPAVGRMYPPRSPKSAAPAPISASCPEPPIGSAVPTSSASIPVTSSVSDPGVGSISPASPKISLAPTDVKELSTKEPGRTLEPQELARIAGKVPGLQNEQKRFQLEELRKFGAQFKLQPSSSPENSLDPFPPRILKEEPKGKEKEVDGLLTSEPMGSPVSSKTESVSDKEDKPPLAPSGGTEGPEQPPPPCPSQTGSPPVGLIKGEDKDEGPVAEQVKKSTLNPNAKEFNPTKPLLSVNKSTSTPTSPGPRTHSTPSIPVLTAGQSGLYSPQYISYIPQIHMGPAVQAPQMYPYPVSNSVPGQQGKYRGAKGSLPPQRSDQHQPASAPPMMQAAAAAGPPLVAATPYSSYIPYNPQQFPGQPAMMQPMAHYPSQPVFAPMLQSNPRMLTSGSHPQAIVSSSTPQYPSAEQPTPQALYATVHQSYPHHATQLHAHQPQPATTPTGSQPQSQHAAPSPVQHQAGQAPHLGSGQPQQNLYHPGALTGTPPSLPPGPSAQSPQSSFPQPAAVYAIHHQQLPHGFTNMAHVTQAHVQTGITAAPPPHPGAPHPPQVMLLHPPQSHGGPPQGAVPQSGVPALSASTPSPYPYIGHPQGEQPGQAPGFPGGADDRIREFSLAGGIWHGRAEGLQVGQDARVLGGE
UniProt P56378: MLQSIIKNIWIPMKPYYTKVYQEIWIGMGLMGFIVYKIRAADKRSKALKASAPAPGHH
UniProt P08243: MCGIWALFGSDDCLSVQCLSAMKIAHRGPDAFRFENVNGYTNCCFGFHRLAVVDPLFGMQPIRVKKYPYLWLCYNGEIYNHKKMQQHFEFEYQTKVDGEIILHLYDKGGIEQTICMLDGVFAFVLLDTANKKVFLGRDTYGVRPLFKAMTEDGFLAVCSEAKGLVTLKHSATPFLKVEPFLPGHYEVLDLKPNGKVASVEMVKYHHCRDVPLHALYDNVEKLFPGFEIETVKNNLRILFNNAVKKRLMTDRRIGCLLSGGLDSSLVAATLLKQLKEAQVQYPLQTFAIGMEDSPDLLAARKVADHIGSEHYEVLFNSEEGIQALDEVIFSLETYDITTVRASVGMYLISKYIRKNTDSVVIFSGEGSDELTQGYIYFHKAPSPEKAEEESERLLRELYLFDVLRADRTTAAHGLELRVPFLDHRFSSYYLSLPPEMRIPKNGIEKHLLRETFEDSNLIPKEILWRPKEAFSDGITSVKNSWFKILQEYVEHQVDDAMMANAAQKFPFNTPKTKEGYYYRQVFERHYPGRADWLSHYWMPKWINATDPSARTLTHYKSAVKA
UniProt P23634: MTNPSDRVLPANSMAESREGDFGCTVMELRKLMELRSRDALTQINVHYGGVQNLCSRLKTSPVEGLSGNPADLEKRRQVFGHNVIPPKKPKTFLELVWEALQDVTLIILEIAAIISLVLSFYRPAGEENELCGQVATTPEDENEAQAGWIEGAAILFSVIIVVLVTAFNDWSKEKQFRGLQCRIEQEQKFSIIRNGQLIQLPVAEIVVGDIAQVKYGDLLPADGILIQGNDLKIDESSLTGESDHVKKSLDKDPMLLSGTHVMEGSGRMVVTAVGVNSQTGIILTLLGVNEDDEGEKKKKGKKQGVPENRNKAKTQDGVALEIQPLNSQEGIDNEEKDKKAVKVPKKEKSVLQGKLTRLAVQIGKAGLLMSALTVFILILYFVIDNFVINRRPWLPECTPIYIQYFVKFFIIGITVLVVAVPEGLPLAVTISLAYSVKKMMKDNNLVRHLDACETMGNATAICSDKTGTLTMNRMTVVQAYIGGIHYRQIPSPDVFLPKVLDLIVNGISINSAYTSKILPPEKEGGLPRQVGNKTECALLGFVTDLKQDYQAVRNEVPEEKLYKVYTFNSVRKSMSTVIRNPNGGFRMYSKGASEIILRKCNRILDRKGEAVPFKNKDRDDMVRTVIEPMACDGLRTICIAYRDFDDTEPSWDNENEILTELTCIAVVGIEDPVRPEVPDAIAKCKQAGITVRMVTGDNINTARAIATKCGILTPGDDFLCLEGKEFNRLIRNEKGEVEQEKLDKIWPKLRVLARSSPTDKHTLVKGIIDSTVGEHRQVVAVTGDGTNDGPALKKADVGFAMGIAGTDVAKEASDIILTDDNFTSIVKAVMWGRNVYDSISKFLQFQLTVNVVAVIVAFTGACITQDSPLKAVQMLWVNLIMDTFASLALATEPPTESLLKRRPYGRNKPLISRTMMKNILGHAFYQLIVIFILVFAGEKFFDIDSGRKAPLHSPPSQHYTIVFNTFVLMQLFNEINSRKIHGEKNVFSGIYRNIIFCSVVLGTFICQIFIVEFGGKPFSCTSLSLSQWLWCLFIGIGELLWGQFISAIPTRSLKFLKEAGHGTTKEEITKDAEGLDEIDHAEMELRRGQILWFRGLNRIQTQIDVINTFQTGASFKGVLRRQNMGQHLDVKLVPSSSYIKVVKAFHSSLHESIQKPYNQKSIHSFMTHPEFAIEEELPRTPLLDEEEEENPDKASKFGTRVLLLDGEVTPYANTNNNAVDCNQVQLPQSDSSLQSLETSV
UniProt Q6VMQ6: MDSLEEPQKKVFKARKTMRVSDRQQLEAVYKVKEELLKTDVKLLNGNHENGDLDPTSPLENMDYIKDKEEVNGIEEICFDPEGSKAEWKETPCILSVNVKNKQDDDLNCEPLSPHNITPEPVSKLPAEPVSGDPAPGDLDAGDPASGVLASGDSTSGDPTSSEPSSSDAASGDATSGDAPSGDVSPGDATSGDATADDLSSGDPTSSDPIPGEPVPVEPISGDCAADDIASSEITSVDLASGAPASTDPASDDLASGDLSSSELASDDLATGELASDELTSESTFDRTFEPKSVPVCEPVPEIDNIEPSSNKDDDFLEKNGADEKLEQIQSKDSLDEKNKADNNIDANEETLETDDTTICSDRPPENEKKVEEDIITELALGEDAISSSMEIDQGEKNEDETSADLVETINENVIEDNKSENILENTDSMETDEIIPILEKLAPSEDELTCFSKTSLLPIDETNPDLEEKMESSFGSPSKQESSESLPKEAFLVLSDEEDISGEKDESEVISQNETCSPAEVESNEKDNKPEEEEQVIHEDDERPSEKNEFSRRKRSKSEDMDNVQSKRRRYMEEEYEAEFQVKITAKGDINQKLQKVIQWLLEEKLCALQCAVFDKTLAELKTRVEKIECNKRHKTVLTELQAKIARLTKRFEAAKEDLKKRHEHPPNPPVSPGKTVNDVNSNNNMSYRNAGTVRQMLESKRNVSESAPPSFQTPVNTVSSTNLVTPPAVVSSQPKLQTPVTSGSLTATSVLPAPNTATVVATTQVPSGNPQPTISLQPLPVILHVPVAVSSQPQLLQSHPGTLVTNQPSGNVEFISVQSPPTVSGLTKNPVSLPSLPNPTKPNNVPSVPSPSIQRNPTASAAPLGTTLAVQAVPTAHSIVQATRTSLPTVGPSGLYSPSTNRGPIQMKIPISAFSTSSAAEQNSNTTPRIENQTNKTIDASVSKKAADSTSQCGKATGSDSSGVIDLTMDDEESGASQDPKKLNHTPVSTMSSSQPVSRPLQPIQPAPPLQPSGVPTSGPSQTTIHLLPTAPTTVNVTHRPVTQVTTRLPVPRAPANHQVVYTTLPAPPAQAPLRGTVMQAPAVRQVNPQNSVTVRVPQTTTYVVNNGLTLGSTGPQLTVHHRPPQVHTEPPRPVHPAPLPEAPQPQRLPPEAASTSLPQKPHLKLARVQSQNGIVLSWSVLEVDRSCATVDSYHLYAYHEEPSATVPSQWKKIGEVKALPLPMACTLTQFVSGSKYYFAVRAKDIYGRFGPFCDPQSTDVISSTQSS
UniProt P30049: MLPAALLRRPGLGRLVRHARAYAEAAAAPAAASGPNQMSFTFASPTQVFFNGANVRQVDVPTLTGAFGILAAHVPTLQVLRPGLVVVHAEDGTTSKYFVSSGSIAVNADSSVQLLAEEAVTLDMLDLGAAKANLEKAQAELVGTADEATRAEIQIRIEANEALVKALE

Columns and labels:
Assay in all cases: log2 fold change, soluble protein after heating vs DMSO (PISA); higher = thermal stabilisation; K562 lysate, 10 uM; active = over 0.2 and 3.5 SD of the protein, either way, in both replicates (recomputed)
alvocidib = compound: CN1CC[C@H](c2c(O)cc(O)c3c(=O)cc(-c4ccccc4Cl)oc23)[C@H](O)C1 [alvocidib]
How it was run: (§1)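 Thermal stability, expressed as log-two fold change relative to solvent controls, is given from duplicates. Crude K562 extract in PBS pH 7.4 with 1 mM MgCl2, at 1 mg/mL protein, was treated with 10 μM compound for 30 min and heated in aliquots for 3 min across 48°C-58°C. After pooling, adjustment to 0.5% NP-40 at 4°C and centrifugation at 21,000xg for 90 min, supernatant protein was measured by TMTpro 16plex LC-MS/MS with channel sums equalised.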

Tubastatin A = compound: CN1CCc2c(c3ccccc3n2Cc2ccc(C(=O)NO)cc2)C1 [Tubastatin A]
How it was run: as §1

[1] = compound: CNC(=O)C1=CC=CC=C1NC2=NC(=NC=C2Cl)NC3=C(C=C(C=C3)N4CCOCC4)OC
How it was run: as §1

defactinib = compound: CNC(=O)c1ccc(Nc2ncc(C(F)(F)F)c(NCc3nccnc3N(C)S(C)(=O)=O)n2)cc1 [defactinib]
How it was run: as §1

[2] = compound: CNc1nc(-c2ccc3c(N)n[nH]c3c2)cc(N2C[C@@H](C(=O)NC3CCCCC3)CC[C@H]2C)n1
How it was run: as §1

encorafenib = compound: COC(=O)N[C@@H](C)CNc1nccc(-c2cn(C(C)C)nc2-c2cc(Cl)cc(NS(C)(=O)=O)c2F)n1 [encorafenib]
How it was run: as §1

[3] = compound: COC(=O)[C@H](CCSC)NC(=O)C1=C(C=C(C=C1)NC[C@H](CS)N)C2=CC=CC=C2
How it was run: as §1

alisertib = compound: COc1cc(Nc2ncc3c(n2)-c2ccc(Cl)cc2C(c2c(F)cccc2OC)=NC3)ccc1C(=O)O [alisertib]
How it was run: as §1

[4] = compound: COc1cc2nc(-c3cc(F)ccc3O)nc(N[C@@H]3CNC[C@H]3C(C)(C)O)c2cc1OC
How it was run: as §1

gefitinib = compound: COc1cc2ncnc(Nc3ccc(F)c(Cl)c3)c2cc1OCCCN1CCOCC1 [gefitinib]
How it was run: as §1

Measured: log2 fold change

ATE1 isoform 2 (UniProt O95260)
inactive: alvocidib -0.116 | Tubastatin A -0.008 | [1] 0.036 | defactinib 0 | [2] 0.038 | encorafenib -0.013 | [3] 0.109 | alisertib 0.021 | [4] 0.004 | gefitinib -0.038

ASXL2 (UniProt Q76L83)
inactive: alvocidib 0.1 | Tubastatin A -0.153 | [1] 0.013 | [2] 0.051 | [4] 0.056

ATP1B3 (UniProt P54709)
inactive: alvocidib -0.013 | Tubastatin A 0.01 | [1] -0.004 | defactinib 0.002 | [2] -0.001 | encorafenib -0.007 | [3] -0.068 | alisertib -0.01 | [4] -0.01 | gefitinib -0.015

AUH (UniProt Q13825)
inactive: alvocidib 0.221 | Tubastatin A 0.147 | [1] 0.057 | defactinib -0.169 | [2] 0.049 | encorafenib 0.015 | [3] 0.023 | [4] -0.052

Reprinted at random: 2 entries already listed.
ATE1 isoform 2 (UniProt O95260)
inactive: alvocidib -0.116 | Tubastatin A -0.008 | [1] 0.036 | defactinib 0 | [2] 0.038 | encorafenib -0.013 | [3] 0.109 | alisertib 0.021 | [4] 0.004 | gefitinib -0.038

ATP1B3 (UniProt P54709)
inactive: alvocidib -0.013 | Tubastatin A 0.01 | [1] -0.004 | defactinib 0.002 | [2] -0.001 | encorafenib -0.007 | [3] -0.068 | alisertib -0.01 | [4] -0.01 | gefitinib -0.015

More entries

ASS1 (UniProt P00966)
inactive: alvocidib 0.031 | Tubastatin A -0.14 | [1] 0.401 | [2] -0.104 | encorafenib 0.024 | [3] 0.086 | alisertib -0.014 | [4] -0.034 | gefitinib 0.054

ATXN2L (UniProt Q8WWM7)
inactive: alvocidib 0 | Tubastatin A 0.038 | [1] 0.147 | defactinib 0.043 | [2] 0.027 | encorafenib 0.07 | [3] 0.023 | alisertib -0.161 | gefitinib 0.077

ATP5MPL (UniProt P56378)
inactive: alvocidib 0.033 | Tubastatin A 0.007 | [1] -0.022 | defactinib 0.086 | [2] -0.009 | encorafenib 0.035 | [3] -0.02 | alisertib 0 | [4] 0.017 | gefitinib -0.108

ASNS (UniProt P08243)
inactive: alvocidib 0.019 | Tubastatin A -0.025 | [1] -0.036 | defactinib 0.006 | [2] 0.027 | encorafenib -0.009 | [3] -0.12 | alisertib 0.019 | [4] 0.009 | gefitinib 0.004

ATP2B4 (UniProt P23634)
inactive: alvocidib -0.116 | Tubastatin A 0.015 | [1] -0.006 | defactinib -0.043 | [2] 0.001 | encorafenib 0.021 | [3] -0.041 | alisertib -0.104 | [4] 0.009 | gefitinib 0.023

ATP6V1B2 (UniProt P21281)
inactive: alvocidib -0.048 | Tubastatin A 0.045 | [1] -0.008 | defactinib 0.003 | [2] -0.012 | encorafenib -0.019 | [3] -0.033 | alisertib -0.038 | [4] -0.002 | gefitinib -0.009

ATF7IP isoform 4 (UniProt Q6VMQ6)
inactive: alvocidib -0.013 | Tubastatin A 0.04 | [1] -0.01 | defactinib -0.007 | [2] 0.041 | encorafenib -0.01 | [3] 0.042 | alisertib -0.03 | [4] 0.019 | gefitinib -0.027

ATP5F1D (UniProt P30049)
inactive: alvocidib 0.027 | Tubastatin A 0.085 | [1] -0.027 | defactinib -0.035 | [2] 0.027 | encorafenib -0.071 | [3] -0.018 | alisertib -0.018 | [4] 0.003 | gefitinib -0.01
